Measurements taken from PMC4059961.

System: SUMO::TaWRKY53 (Triticum aestivum L. cv. Gamtoos-R)
Experiment: EMSA
Details: Probe EMSA: 10 mM Tris, 50 mM KCl, 1 mM DTT, pH 7.5, 20 min, room temperature; 1-kb EMSA: 10 mM Tris, 100 mM KCl, 1 mM EDTA, 0.1 mM DTT, 5% glycerol, 0.01 mg/mL BSA; recombinant protein; protein details: N-terminal 6xHis-SUMO; label: biotin

“AGCCTCACGTTTCGTCCTGATTGCAAGTTGTTGACTTAAATTTGACTTGTCTCGGAACAAAACAATAACCTGCAGTCCGT (double strand) [chitinase-2 promoter probe]”: no binding.

A negative result means that nothing was seen under these conditions.
